# This is one part of the list.
# Amino acid sequences for entries named in this document (tags omitted). A change or cut given only in a name is not applied to a line headed by its entry.
# UniProt Q14644: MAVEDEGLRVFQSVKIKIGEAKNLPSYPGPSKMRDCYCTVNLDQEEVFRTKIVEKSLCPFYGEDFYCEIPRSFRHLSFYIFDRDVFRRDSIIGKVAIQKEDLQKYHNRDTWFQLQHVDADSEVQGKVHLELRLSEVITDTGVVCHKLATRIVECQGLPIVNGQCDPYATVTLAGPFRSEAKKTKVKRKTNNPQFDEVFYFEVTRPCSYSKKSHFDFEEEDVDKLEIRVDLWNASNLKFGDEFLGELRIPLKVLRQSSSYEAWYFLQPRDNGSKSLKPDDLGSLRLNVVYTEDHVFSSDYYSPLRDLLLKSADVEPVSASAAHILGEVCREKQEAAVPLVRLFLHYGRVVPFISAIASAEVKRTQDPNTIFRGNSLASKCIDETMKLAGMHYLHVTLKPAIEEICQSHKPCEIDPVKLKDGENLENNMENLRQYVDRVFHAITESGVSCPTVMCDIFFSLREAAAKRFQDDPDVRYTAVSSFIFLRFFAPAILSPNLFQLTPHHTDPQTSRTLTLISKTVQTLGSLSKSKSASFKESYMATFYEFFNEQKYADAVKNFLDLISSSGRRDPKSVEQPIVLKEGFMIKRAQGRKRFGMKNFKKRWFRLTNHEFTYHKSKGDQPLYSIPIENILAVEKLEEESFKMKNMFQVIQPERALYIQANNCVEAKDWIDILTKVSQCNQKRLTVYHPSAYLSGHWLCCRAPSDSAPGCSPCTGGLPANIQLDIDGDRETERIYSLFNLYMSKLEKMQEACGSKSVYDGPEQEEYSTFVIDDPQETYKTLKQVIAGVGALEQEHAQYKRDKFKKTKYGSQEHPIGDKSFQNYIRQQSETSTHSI
# UniProt P46060: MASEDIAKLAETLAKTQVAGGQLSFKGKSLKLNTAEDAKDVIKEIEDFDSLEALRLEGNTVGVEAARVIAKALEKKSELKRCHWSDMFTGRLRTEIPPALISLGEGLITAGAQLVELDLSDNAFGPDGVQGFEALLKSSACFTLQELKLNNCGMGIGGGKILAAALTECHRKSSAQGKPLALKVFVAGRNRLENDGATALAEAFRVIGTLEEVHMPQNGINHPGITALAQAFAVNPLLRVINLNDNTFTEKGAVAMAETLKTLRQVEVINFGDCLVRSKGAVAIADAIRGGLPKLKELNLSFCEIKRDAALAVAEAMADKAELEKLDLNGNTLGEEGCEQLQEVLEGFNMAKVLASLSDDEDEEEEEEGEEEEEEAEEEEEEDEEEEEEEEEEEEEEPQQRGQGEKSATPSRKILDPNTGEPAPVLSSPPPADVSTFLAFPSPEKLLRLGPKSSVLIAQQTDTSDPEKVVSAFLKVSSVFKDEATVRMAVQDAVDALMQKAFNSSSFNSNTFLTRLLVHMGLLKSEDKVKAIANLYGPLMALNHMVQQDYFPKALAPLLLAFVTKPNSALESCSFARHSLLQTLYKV
# UniProt Q96S59, whole entry, looked up: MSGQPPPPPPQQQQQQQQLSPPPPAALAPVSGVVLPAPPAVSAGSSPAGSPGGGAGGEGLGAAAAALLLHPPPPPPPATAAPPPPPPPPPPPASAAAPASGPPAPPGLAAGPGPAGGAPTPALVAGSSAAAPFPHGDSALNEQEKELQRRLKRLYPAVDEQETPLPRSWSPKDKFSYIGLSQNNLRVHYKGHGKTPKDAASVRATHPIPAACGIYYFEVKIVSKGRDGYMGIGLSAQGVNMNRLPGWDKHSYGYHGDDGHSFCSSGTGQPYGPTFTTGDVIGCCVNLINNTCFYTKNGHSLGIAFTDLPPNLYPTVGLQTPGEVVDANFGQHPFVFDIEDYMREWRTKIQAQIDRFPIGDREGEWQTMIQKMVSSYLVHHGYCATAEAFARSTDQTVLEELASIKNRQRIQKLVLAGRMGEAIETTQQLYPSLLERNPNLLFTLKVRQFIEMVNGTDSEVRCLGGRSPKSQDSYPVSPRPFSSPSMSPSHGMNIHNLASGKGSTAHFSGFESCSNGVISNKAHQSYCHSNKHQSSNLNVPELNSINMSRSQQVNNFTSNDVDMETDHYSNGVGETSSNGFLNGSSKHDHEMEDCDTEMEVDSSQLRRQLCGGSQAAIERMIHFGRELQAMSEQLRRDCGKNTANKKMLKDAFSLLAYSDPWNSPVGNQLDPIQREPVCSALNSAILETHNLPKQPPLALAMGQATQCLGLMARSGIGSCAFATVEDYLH
# UniProt Q6GYQ0: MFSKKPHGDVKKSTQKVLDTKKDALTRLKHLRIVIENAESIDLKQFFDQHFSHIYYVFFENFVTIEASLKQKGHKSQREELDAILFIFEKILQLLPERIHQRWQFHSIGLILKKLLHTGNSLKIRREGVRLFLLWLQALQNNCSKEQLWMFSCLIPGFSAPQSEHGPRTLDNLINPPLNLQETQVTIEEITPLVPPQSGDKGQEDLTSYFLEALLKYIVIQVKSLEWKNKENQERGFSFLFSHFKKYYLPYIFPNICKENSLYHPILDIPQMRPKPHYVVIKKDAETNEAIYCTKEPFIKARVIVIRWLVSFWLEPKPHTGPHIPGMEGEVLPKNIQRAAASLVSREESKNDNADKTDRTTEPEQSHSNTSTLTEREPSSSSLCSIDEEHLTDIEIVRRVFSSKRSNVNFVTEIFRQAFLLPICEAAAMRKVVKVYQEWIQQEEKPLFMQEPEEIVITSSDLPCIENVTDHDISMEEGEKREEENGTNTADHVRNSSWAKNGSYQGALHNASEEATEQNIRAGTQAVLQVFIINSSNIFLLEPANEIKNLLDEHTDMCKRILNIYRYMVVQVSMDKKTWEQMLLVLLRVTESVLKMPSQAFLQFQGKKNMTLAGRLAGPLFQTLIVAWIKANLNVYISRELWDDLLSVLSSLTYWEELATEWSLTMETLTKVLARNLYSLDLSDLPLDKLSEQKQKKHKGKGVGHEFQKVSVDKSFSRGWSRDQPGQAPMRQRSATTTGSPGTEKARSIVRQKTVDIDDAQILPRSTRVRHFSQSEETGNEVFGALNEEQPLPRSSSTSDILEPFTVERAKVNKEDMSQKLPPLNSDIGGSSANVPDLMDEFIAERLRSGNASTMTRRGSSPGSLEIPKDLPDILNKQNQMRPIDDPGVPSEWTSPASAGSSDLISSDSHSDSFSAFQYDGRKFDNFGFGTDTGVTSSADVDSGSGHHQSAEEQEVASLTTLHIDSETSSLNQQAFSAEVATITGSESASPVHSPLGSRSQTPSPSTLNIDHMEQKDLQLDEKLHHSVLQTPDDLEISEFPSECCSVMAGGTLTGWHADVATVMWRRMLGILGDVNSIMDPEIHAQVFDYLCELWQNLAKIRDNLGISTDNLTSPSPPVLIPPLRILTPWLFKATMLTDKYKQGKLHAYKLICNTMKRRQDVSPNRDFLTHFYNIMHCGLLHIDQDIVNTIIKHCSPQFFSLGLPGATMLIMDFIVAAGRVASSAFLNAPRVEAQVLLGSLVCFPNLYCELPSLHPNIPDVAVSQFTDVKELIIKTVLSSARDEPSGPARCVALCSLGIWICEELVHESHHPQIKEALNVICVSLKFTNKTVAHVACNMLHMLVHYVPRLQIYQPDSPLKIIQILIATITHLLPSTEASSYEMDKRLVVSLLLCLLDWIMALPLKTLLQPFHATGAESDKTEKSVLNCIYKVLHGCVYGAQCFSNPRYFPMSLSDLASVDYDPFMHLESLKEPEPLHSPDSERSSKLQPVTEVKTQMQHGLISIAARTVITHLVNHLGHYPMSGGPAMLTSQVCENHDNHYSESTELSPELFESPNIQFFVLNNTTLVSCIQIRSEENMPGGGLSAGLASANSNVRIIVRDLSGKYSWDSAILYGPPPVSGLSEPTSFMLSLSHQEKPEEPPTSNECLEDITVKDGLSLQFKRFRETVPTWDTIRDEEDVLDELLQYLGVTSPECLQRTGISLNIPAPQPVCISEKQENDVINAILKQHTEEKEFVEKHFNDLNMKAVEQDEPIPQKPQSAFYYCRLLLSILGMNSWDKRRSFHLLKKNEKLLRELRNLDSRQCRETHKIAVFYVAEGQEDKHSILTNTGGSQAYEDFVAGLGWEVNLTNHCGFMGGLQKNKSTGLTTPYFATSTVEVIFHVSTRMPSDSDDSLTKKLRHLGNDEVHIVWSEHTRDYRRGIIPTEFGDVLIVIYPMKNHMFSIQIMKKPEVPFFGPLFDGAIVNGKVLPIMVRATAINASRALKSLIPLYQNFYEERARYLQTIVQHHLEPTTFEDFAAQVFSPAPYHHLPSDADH
# UniProt P62877, whole entry, looked up: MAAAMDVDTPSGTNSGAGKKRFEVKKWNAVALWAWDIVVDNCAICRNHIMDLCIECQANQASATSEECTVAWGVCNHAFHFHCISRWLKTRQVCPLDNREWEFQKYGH
# UniProt Q8TDY2, whole entry, looked up: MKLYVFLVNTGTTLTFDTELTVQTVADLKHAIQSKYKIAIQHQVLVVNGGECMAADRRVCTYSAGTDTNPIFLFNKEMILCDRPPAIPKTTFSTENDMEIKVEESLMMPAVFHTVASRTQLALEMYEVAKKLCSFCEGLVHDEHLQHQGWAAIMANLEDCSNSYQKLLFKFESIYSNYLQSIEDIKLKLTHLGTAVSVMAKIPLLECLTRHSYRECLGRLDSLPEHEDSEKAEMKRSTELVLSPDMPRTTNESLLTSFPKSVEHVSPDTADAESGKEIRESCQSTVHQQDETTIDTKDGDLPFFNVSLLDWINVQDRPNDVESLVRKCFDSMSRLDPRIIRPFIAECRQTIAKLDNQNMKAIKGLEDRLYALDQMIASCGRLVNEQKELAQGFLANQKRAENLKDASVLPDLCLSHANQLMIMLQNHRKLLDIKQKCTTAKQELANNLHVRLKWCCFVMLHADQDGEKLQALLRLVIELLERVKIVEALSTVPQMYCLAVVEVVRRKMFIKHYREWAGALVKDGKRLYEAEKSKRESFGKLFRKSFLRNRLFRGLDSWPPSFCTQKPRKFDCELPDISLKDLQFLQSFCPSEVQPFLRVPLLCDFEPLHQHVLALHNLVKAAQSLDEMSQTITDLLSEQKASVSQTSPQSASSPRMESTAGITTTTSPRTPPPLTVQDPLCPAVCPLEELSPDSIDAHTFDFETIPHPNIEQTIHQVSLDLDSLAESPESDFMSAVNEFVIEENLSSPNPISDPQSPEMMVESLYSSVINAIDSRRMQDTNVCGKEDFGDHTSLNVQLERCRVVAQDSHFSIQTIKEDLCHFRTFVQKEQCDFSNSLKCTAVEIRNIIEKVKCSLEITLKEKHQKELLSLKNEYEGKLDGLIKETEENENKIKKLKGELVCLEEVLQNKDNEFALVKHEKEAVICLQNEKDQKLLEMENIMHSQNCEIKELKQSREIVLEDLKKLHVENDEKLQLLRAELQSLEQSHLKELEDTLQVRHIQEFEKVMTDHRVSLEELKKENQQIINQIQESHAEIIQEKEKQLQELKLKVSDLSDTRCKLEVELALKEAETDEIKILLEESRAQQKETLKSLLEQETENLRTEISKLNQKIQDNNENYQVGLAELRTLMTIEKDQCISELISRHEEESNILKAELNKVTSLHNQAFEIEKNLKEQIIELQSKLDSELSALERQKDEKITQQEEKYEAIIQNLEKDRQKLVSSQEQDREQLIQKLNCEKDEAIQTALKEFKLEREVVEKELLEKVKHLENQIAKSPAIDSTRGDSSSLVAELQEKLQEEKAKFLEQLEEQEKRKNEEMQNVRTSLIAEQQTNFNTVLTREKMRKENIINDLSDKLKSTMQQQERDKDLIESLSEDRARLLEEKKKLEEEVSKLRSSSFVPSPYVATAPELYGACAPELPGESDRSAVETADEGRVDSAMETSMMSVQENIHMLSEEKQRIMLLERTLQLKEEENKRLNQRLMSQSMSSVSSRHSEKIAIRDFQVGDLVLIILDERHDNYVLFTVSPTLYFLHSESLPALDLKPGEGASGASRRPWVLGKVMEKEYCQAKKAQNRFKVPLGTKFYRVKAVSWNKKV
# UniProt Q14498: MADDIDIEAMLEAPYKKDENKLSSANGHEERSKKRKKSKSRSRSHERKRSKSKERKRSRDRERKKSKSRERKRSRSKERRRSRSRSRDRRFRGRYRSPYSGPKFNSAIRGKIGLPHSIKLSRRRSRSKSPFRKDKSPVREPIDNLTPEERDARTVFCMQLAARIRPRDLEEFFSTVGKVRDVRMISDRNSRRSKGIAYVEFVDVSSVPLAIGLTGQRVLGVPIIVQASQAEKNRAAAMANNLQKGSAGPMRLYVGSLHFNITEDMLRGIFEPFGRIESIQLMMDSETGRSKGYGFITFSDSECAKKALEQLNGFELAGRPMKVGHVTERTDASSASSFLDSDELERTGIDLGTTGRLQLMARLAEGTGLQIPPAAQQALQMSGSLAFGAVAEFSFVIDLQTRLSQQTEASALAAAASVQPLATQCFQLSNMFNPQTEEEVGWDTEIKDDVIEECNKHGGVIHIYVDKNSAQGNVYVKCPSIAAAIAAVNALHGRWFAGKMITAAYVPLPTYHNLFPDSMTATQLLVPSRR
# Compound: Cc1cc(ccc1-c1ccccc1)C(=O)N1CCCN(CC1)C(=O)CCl [compound 10]
# Experiment: probe-labelled cysteine peptide fold change vs DMSO (competition) (log2 fold change); higher = less target engagement (more negative = stronger competition)
# Conditions: 10 µM; THP-1; incubation time: 4 h
# 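Note: competitive profiling in live THP-1 cells: cysteine peptides tagged with an iodoacetamide desthiobiotin (IA-DTB) probe, intensity after compound treatment relative to DMSO-treated cells.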
row,Target,probe-labelled cysteine peptide fold change
1,RECQL4_O94761_1008_ALCQLQWDHEPR (UniProt O94761),-0.262
2,RBM19_Q9Y4C8_31_QLFAAFGTLTDCSLK (UniProt Q9Y4C8),0.301
3,RBL1_P28749_1047_VCQENDDVLLK (UniProt P28749),-0.143
4,RAN_P62826_112+120_VCENIPIVLCGNK (UniProt P62826),0.0758
5,RAI1_Q7Z5J4_1516_MEELGLASQPPEGRPCQPQTR (UniProt Q7Z5J4),-0.171
6,RBM22_Q9NW64_84_NVCQTCLLDLEYGLPIQVR (UniProt Q9NW64),0.0629
7,RBBP6_Q7Z6E9_283_DIMTDAVVIPCCGNSYCDECIR (UniProt Q7Z6E9),0.318
8,RARS2_Q5T160_74_CDTVVSEISTGQR (UniProt Q5T160),0.34
9,RASA3_Q14644_144_LSEVITDTGVVCHK (UniProt Q14644),0.0862
10,RBBP7_Q16576_97_VHIPNDDAQFDASHCDSDK (UniProt Q16576),-0.205
11,RANGAP1_P46060_169_ILAAALTECHR (UniProt P46060),-0.0288
12,RARS_P54136_369_IVFVPGCSIPLTIVK (UniProt P54136),0.133
13,RCC2_Q9P258_305_IEYDCELVPR (UniProt Q9P258),0.0188
14,RANBP9_Q96S59_594_HDHEMEDCDTEMEVDSSQLR (UniProt Q96S59),-0.248
15,RANBP2_P49792_1612_EGQWDCSVCLVR (UniProt P49792),0.0273
16,RANBP2_P49792_1549_KEGQWDCSSCLVR (UniProt P49792),0.101
17,RANBP3_Q9H6Z4_249_NESSNASEEEACEK (UniProt Q9H6Z4),-0.298
18,RBM34_P42696_196_TVFVGNLPVTCNKK (UniProt P42696),0.0417
19,RBM47_A0AV96_71_GCEVFVGK,0.081
20,RBL1_P28749_439_GIGETFCQHYTQSTDEQPGSHIDFAVNR (UniProt P28749),-0.0209

row,Target,probe-labelled cysteine peptide fold change
1,RAP1GDS1_P52306_454_LVEWCEAK (UniProt P52306),0.159
2,RALGAPA1_Q6GYQ0_424_QAFLLPICEAAAMR (UniProt Q6GYQ0),0.0376
3,RBX1_P62877_94_QVCPLDNR (UniProt P62877),-0.0174
4,RBM22_Q9NW64_165_NRPHICSFWVK (UniProt Q9NW64),-0.319
5,RB1CC1_Q8TDY2_839_CTAVEIR (UniProt Q8TDY2),-0.358
6,RBBP6_Q7Z6E9_44_AADCDLQITNAQTK (UniProt Q7Z6E9),-0.176
7,RBM15B_Q8NDT2_732_NSCFPTSMHILEGDQGVISSLLK (UniProt Q8NDT2),0.127
8,RANBP6_O60518_792_SIEVMGDGCLNDEHLEELGGILK (UniProt O60518),-0.0727
9,RBPJ_Q06330_72_FFCPPPCVYLMGSGWK (UniProt Q06330),-0.103
10,RB1_P06400_438_AVGQGCVEIGSQR (UniProt P06400),-0.208
11,RANBP2_P49792_815_MICQQVEAIKK (UniProt P49792),-0.0292
12,RBPJ_Q06330_180_NADLCIASGTK (UniProt Q06330),-0.0723
13,RANBP2_P49792_1502_CAACQNPR (UniProt P49792),0.221
14,RASSF4_Q9H2L5_145_SDASCMSQR (UniProt Q9H2L5),0.115
15,RBM39_Q14498_303_GYGFITFSDSECAK (UniProt Q14498),-0.0956
16,RANBP2_P49792_1424_KEGHWDCSICLVR (UniProt P49792),-0.00245
17,RBM42_Q9BTD8_385_IFCGDLGNEVNDDILAR (UniProt Q9BTD8),0.118
18,RBBP6_Q7Z6E9_27_LNYDTVTFDGLHISLCDLK (UniProt Q7Z6E9),0.127
19,RBCK1_Q9BYM8_308_ECLQGTIR (UniProt Q9BYM8),0.0246

# Same assay, conditions: 50 µM; THP-1; incubation time: 4 h
row,Target,probe-labelled cysteine peptide fold change
1,RECQL4_O94761_1008_ALCQLQWDHEPR (UniProt O94761),-0.501
2,RBM19_Q9Y4C8_31_QLFAAFGTLTDCSLK (UniProt Q9Y4C8),0.448
3,RBL1_P28749_1047_VCQENDDVLLK (UniProt P28749),-0.0793
4,RAN_P62826_112+120_VCENIPIVLCGNK (UniProt P62826),-0.0466
5,RAI1_Q7Z5J4_1516_MEELGLASQPPEGRPCQPQTR (UniProt Q7Z5J4),-0.319
6,RBM22_Q9NW64_84_NVCQTCLLDLEYGLPIQVR (UniProt Q9NW64),-0.183
7,RBBP6_Q7Z6E9_283_DIMTDAVVIPCCGNSYCDECIR (UniProt Q7Z6E9),0.243
8,RARS2_Q5T160_74_CDTVVSEISTGQR (UniProt Q5T160),0.331
9,RASA3_Q14644_144_LSEVITDTGVVCHK (UniProt Q14644),-0.21
10,RBBP7_Q16576_97_VHIPNDDAQFDASHCDSDK (UniProt Q16576),-0.18
11,RANGAP1_P46060_169_ILAAALTECHR (UniProt P46060),-0.0217
12,RARS_P54136_369_IVFVPGCSIPLTIVK (UniProt P54136),0.0185
13,RCC2_Q9P258_305_IEYDCELVPR (UniProt Q9P258),0.116
14,RANBP9_Q96S59_594_HDHEMEDCDTEMEVDSSQLR (UniProt Q96S59),-0.345
15,RANBP2_P49792_1612_EGQWDCSVCLVR (UniProt P49792),-0.317
16,RANBP2_P49792_1549_KEGQWDCSSCLVR (UniProt P49792),-0.316
17,RANBP3_Q9H6Z4_249_NESSNASEEEACEK (UniProt Q9H6Z4),-0.545
18,RBM34_P42696_196_TVFVGNLPVTCNKK (UniProt P42696),-0.242
19,RBM47_A0AV96_71_GCEVFVGK,0.0796
20,RBL1_P28749_439_GIGETFCQHYTQSTDEQPGSHIDFAVNR (UniProt P28749),0.111

row,Target,probe-labelled cysteine peptide fold change
1,RAP1GDS1_P52306_454_LVEWCEAK (UniProt P52306),0.0381
2,RALGAPA1_Q6GYQ0_424_QAFLLPICEAAAMR (UniProt Q6GYQ0),0.262
3,RBX1_P62877_94_QVCPLDNR (UniProt P62877),0.204
4,RBM22_Q9NW64_165_NRPHICSFWVK (UniProt Q9NW64),-0.539
5,RB1CC1_Q8TDY2_839_CTAVEIR (UniProt Q8TDY2),-0.219
6,RBBP6_Q7Z6E9_44_AADCDLQITNAQTK (UniProt Q7Z6E9),0.102
7,RBM15B_Q8NDT2_732_NSCFPTSMHILEGDQGVISSLLK (UniProt Q8NDT2),0.418
8,RANBP6_O60518_792_SIEVMGDGCLNDEHLEELGGILK (UniProt O60518),0.0635
9,RBPJ_Q06330_72_FFCPPPCVYLMGSGWK (UniProt Q06330),0.182
10,RB1_P06400_438_AVGQGCVEIGSQR (UniProt P06400),0.131
11,RANBP2_P49792_815_MICQQVEAIKK (UniProt P49792),-0.0925
12,RBPJ_Q06330_180_NADLCIASGTK (UniProt Q06330),-0.0419
13,RANBP2_P49792_1502_CAACQNPR (UniProt P49792),-0.00857
14,RASSF4_Q9H2L5_145_SDASCMSQR (UniProt Q9H2L5),-0.0535
15,RBM39_Q14498_303_GYGFITFSDSECAK (UniProt Q14498),0.529
16,RANBP2_P49792_1424_KEGHWDCSICLVR (UniProt P49792),-0.496
17,RBM42_Q9BTD8_385_IFCGDLGNEVNDDILAR (UniProt Q9BTD8),0.308
18,RBBP6_Q7Z6E9_27_LNYDTVTFDGLHISLCDLK (UniProt Q7Z6E9),0.255
19,RBCK1_Q9BYM8_308_ECLQGTIR (UniProt Q9BYM8),-0.387

# From the supplement of paper PMC12067093, “Discovery and optimisation of a covalent ligand for TRIM25 and its application to targeted protein ubiquitination” (Chemical Science, 2025)
